Assay: general procedure: solution-phase peptide synthesis; HATU/DIPEA
Conditions: TFA salt; for step yield: late stage modification step

Substance: 2-(2-{2-[2-(Cyclooct-2-yn-1-yloxy)acetamido]acetamido}acetamido)-N-({[(10S,23S)-10-ethyl-18-fluoro-10-hydroxy-19-methyl-5,9-dioxo-8-oxa-4,15-diazahexacyclo[14.7.1.0^2,^14.0^4,^13.0^6,^11.0^20,^24]tetracosa-1,6(11),12,14,16,18,20(24)-heptaen-23-yl]carbamoyl}methyl)acetamide
- conjugation yield (conjugation step): 39%

Substance: 2-[2-(2-{2-[2-(Cyclooct-2-yn-1-yloxy)acetamido]acetamido} acetamido)acetamido]acetic acid
- step yield: 15%

Substance: (2S)-2-(2-{2-[2-(Cyclooct-2-yn-1-yloxy)acetamido]acetamido}acetamido)-N-[({[(19S)-19-ethyl-19-hydroxy-7-methoxy-14,18-dioxo-17-oxa-3,13-diazapentacyclo[11.8.0.0^2,^11.0^4,^9.0^15,^20]henicosa-1(21),2,4,6,8,10,15(20)-heptaen-10-yl]methyl}carbamoyl)methyl]-3-phenylpropanamide
- step yield: 5%

Substance: (2S)-2-[2-(2-Aminoacetamido)acetamido]-N-[({[(19S)-19-ethyl-19-hydroxy-7-methoxy-14,18-dioxo-17-oxa-3,13-diazapentacyclo[11.8.0.0^2,^11.0^4,^9.0^15,^20]henicosa-1(21),2,4,6,8,10,15(20)-heptaen-10-yl]methyl}carbamoyl)methyl]-3-phenylpropanamide
- crude LC-MS purity (coupling step, LCMS): 68% purity in LCMS
